Source: PubChem BioAssay AID1508588 (Peter MacCallum Cancer Centre, 2020)
Here is a random part of about 18,000 reagents tested. In the full data, 790 (4.4%) got an active call. 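Calls rest on a combination of fold-change classes in drug and vehicle arms, not all shown here.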 Reagent sequences are not shown.

Assay: 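Which gene losses make BRAF-mutant melanoma cells more responsive to vemurafenib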 (primary screen)
Cells: human WM266.4 melanoma cells (BRAF V600 mutant)
Reagent: siRNA pool against human genes, 40 nM
Duration: 96 h from transfection to read-out
Conditions: vemurafenib 300 nM (about IC25), added 48 h after transfection, for 48 h; comparison arm got DMSO vehicle only
Measured: 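Cell gain (DAPI nuclei at end minus before drug, mean of two replicates) and medium lactate by absorbance per cell, both as ratio to non-targeting siRNA, also grouped into fold-change classes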
Reading the numbers: cell gain with vemurafenib: higher = more cell gain than with non-targeting siRNA; lactate per cell with vemurafenib: higher = more lactate made per cell
Hit rule: 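Enhancement is called by pairing each knock-down's vehicle-arm and drug-arm fold-change classes for viability or glycolysis; which class combinations qualify is not given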
Meaning of the calls: active = enhances vemurafenib effect; inactive = no enhancement seen

no.	target gene	cell gain with vemurafenib	lactate per cell with vemurafenib	activity call
1	POMGNT2	0.5	1.36	inactive
2	HOXC9	0.97	0.48	active
3	SMAD1	0.66	0.72	inactive
4	YIPF7	0.66	0.91	inactive
5	GYPB	0.29	1.92	inactive
6	OR6X1	0.2	1.69	inactive
7	GARNL3	0.69	0.48	inactive
8	NAT9	0.19	0.57	inactive
9	CNTRL	0.37	1.42	inactive
10	GALNT5	0.51	0.64	inactive
11	PPHLN1	0.78	0.17	active
12	TRIM37	0.93	0.7	inactive
13	ZC3H3	0.95	0.83	inactive
14	METTL16	0.47	1.01	inactive
15	WFDC10B	0.74	1.12	inactive
16	AFAP1L2	0.52	0.91	inactive
17	UPF3B	0.59	1.04	inactive
18	TBX5	0.86	0.97	inactive
19	CT47A5	0.67	0.66	inactive
20	EIF4B	0.37	1.23	inactive
21	CFAP65	0.69	0.63	inactive
22	TPGS1	0	1.57	inactive
23	ELN	0.7	1.4	inactive
24	GFM1	1.07	0.55	inactive
25	PDCD5	0.71	1.12	inactive
26	SOFU1	0.84	1.05	inactive
27	NLK	0.03	0.81	inactive
28	OR4D6	0.4	0.62	inactive
29	SRPX	0.23	1.62	inactive
30	IL21	0.87	0.82	inactive
31	BCAR1	0.13	-0.2	active
32	C20orf144	0.79	0.86	inactive
33	TMEM168	0.77	0.77	inactive
34	SAR1B	0.49	1.12	inactive

Records listed above marked active:
target gene	cell gain with vemurafenib	lactate per cell with vemurafenib	activity call
HOXC9	0.97	0.48	active
PPHLN1	0.78	0.17	active
BCAR1	0.13	-0.2	active
